Laboratory results from patent US20250026849A1 (ARCELLX, published 2025).

Key:
[1] = target: T1, α3D-BCMA Adapter (SEQ ID NO: 1083); assay: flow cytometry: CAR transduced Jurkat cells incubated with 0.5 µg His-tagged Adapter, stained with anti-HIS PE (FIG. 2A)
T1 construct: Soluble fusion of the targetless α3D domain, linkers, the BCMA extracellular domain and a His tag
T1 chain: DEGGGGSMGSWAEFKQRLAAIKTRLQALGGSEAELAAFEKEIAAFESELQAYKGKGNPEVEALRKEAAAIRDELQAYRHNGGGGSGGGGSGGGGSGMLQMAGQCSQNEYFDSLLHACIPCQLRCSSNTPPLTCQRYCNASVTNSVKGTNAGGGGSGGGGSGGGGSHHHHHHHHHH
Description: (§1) FIGS. 2A-2B: Adapter binding associates with the Adapter and CAR binding specificity. Jurkat NFAT-Luciferase reporter cells were transduced with a negative control CAR (α3D), an AFP (p26)-binding CAR (af03), or a BCMA-binding CAR (bc40). In FIG. 2A, CAR transduced Jurkat cells were incubated with 0.5 μg of Adapter protein (4° C. for 20 minutes), washed, and then stained with anti-HIS PE (clone J095G46, 4° C. for 20 minutes).

[2] = target: T2, cg06-BCMA Adapter (SEQ ID NO: 1082); assay: as above
T2 construct: also called CD123-specific Adapter with a BCMA antigenic determinant
T2 chain: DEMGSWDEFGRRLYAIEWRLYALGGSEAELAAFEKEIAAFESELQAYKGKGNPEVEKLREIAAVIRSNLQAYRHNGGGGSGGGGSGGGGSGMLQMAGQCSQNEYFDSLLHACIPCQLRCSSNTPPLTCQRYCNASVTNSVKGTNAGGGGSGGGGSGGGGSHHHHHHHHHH
Description: as §1

binding result [1]: binds | binding result [2]: binds
B1: BCMA-binding CAR (bc40, SEQ ID NO: 1091) (other)
chain: DYKDDDDKGGGGSGGGGSMGSWSEFWVRLGAIRERLDALGGSEAELAAFEKEIAAFESELQAYKGKGNPEVEKLRYTAATIRRFLQAYRHNGGGGSGGGGSGTTTPAPRPPTPAPTIASQPLSLRPEACRPAAGGAVHTRGLDFACDIYIWAPLAGTCGVLLLSLVITLYCKRGRKKLLYIFKQPFMRPVQTTQEEDGCSCRFPEEEEGGCELRVKFSRSADAPAYKQGQNQLYNELNLGRREEYDVLDKRRGRDPEMGGKPRRKNPQEGLYNELQKDKMAEAYSEIGMKGERRRGKGHDGLYQGLSTATKDTYDALHMQALPPR
notes: Chimeric antigen receptor with a D domain, on Jurkat reporter cells or human T cells; also called BCMA-specific D domain CAR (bc40); CTsp-Flag-GSlinker-bc40-GSlinker-CD8H-TM-41BB-CD3ζ
